Test results taken from patent US9738878B2, “HIV-1 integrase derived peptides and compositions” (priority 2008, dated 2017).
Some of these results come from one statement about several compounds together.

Target: T1, IN (Human immunodeficiency virus type 1 group M subtype B, UniProt P12497)
T1 construct: The histidine-tagged IN expression vector was a generous gift from Dr. A. Engelman; histidine tag; made in house
Assay: IN enzymatic activity assay
Type: biochemical, HIV-1
Conditions: peptide:IN (mol/mol) ratio of about 150
Method: The IN enzymatic activity assay was performed using a previously described assay system (Craigie et al., 1991, Nucleic Acids Res 19, 2729-2734, Hwang et al., 2000, Nucleic Acids Res 28, 4884-4892). Briefly, the oligonucleotide substrate consisted of one oligo (5′-[…]-3′) labeled with biotin at the 3′ end and the other oligo (5′-[…]-3′) labeled with digoxigenin at the 5′ end. When inhibition was studied, the IN was preincubated with the peptide or protein for 15 min prior to addition of the DNA substrate.
FIG. 2 (A) Rev-GFP (dark green) or GFP (turquoise) were incubated at different molar ratios with IN (390 nM) and the IN enzymatic activity was determined as described above. (B) Rev-GFP was preincubated with the indicated INS peptide at a molar ratio of 5:1 (peptide:Rev-GFP) and the resultant mixture was added to a solution containing IN to give a molar ratio of 1:200 and 1:400 (IN:Rev-GFP). Following an incubation period, IN activity was estimated as described above. (C) Same as (B) but with the INrs peptides. […]

Substance	inhibition of IN enzymatic activity [%]
Rev 53-67: Rev-derived peptide that blocks IN enzymatic activity [reference compound]	60 to 70
Rev 13-23: Rev-derived peptide that blocks IN enzymatic activity (IRTVRLIKLLY; UniProt P04618 13-23, looked up, fragment) [reference compound]	60 to 70
